Literature values, collected in patent US20060270610A1, “Novel compounds for hypoxic cell therapy and imaging” (priority 2005, published 2006).
Read-outs that look alike come from different tables or passages of the source. At least one structure is not confirmed: it was looked up by name or label, or the drawing left a doubt.

Tested on: subcutaneous A431 tumor
Details: nude mouse

In the case of `O=[N+]([O-])c1nccn1[C@H]1O[C@H](C[18F])[C@@H](O)[C@@H]1O` [[^18F] 1-α-D-FAZA], the tumor-background (breathing 100 % O2) is listed as 5.3:1 and the tumor-background (breathing room air) is listed as 9.3:1.
